This passage reports binding results from article PMC7957265.

Chains of the proteins cited; added tags and fusions are not shown.
UniProt Q68G74: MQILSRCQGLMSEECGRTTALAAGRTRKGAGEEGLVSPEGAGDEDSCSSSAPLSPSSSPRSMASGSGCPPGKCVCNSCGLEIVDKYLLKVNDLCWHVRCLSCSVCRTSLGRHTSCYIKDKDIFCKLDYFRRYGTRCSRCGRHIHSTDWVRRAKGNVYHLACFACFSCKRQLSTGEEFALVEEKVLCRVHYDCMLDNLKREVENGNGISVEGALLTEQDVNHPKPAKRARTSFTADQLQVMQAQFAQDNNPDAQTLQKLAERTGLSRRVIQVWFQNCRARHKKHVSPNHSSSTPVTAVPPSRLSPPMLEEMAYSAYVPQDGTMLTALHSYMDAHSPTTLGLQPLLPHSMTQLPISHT

The assay addresses T1, Suv39h1, histone-lysine N-methyltransferase (human (endogenous in DPSCs)) (UniProt O43463).
T1 sequence: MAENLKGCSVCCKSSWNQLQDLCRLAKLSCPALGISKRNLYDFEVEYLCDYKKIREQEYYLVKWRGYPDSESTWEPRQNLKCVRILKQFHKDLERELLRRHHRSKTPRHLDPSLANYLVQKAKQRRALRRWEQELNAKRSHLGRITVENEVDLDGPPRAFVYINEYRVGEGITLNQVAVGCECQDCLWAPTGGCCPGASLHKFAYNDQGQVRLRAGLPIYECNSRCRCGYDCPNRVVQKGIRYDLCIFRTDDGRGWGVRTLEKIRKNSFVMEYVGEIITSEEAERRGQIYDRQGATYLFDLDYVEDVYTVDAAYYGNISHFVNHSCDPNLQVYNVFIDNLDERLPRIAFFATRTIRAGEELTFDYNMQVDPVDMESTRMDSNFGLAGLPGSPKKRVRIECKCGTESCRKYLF
The assay can be described thus: co-IP; nuclear lysates of DPSCs, about 1 mg protein extract with 10 ug anti-Suv39h1 monoclonal antibody or IgG control, 12 hours at 4°C, protein A Sepharose, three washes with ice-cold lysis buffer, Western blot.

Results are given in words; binding and its absence hold for the method and conditions named. Binding seen in cells or lysates may run through a third protein. Some results given as binding are weak or reduced against the parent protein; the word gives no strength. Sequences can lack the tags named with a protein.

Turning to “LIM-homeobox 8 (Lhx8) (from UniProt Q68G74 1-356)”, the binding result is given as “binds”.
